Results deposited as PubChem BioAssay AID720505 (Drosophila RNAi Screening Center, 2013).

- Aim: 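Knock-downs that reduce calcium influx once internal stores are emptied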 (primary screen)
- Cell system: Drosophila S2R+ cells
- Reagents: long dsRNA against Drosophila genes
- Treatment: thapsigargin (2 µM) in calcium-free buffer to empty internal stores, then 2 mM calcium added back
- Measured: 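Fluo-4 signal in 384-well plates read on a FLIPR after thapsigargin (2 µM, calcium-free) store depletion and 2 mM calcium add-back; unnormalised mean endpoint per well; screen run twice, selected wells retested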
- Direction: calcium signal and retest calcium signal: higher = more calcium entry after store depletion
- Call rule: 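Knock-downs counted as hits when calcium entry dropped relative to STIM1 positive and Rho1 negative controls present on each plate; roughly 1500 genes called, with reductions of differing size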
- Calls: active = called as lowering calcium entry; inactive = not called
The screen tested about 20,000 reagents; this is a random part of those with a known target gene and a result. Of all reagents, about 2,100 (10%) are marked active. 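Raw plate signals without normalisation; calls rest on control-based scores that were not deposited; replicate 2 separates called from uncalled poorly.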 Reagents against one gene are numbered here. A plus sign joins genes that one reagent is predicted to hit. Not stated in the record: the amount of reagent, the time to read-out.

Gene	reagent no.	calcium signal, replicate 1	calcium signal, replicate 2	retest calcium signal, replicate 1	retest calcium signal, replicate 2	Outcome
lawc	1	150	96.6			inactive
lawc	2	65	123			inactive
eIF2Bepsilon	1	84.8	162			inactive
euc	1	128	94.7			inactive
CG43774 + CG43773	1	201	85.7			inactive
CG43774 + CG43773	2	197	86.5			inactive
CG1354	1	120	87.1			inactive
CG15529	1	234	155			inactive
wa-cup	1	122	101			inactive
CG15767	1	68.3	202			active
CG42240	1	102	134	78.1	90.6	inactive
sPLA2	1	111	110			inactive
Herc4	1	95.2	105			inactive
CG10700	1	162	80.1			inactive
ninaA	1	110	164			inactive
CG1236	1	115	89.2			inactive
Pym	1	80.8	163			inactive
Pym	2	80.4	114			inactive
CG2519	1	113	130			inactive
CG9522	1	118	145			inactive
CG32669	1					inactive
CG13131	1	95.1	83.1			inactive
CG13131	2	97.7	195			inactive
isoQC	1	149	201			inactive
CG5850	1	105	97.1			inactive
Yif1	1	89.6	112			inactive
CG6659	1	200	174			inactive
sug	1	186	163			inactive
CG44325	1	271	74.3			inactive
CG44325	2	57.1	293			active
CG42383	1	102	108			inactive
CycC	1	66.8	98.3			active
Gr59d	1	83	151			inactive
CG9171	1	106	215			inactive
CG9171	2	148	95.2			inactive

Reagents listed so far with an active call (3):
Gene	reagent no.	calcium signal, replicate 1	calcium signal, replicate 2	retest calcium signal, replicate 1	retest calcium signal, replicate 2	Outcome
CG15767	1	68.3	202			active
CG44325	2	57.1	293			active
CycC	1	66.8	98.3			active
